No constants are given. Whether binding was seen depends on the method and setting. Binding seen in cells or lysates may run through a third protein. Some entries that bind do so weakly or less than the wild type.
Molecular target: T1, Chromobox 8 (human (endogenous in T24 and BIU-87)) (UniProt Q9HC52)
T1 sequence: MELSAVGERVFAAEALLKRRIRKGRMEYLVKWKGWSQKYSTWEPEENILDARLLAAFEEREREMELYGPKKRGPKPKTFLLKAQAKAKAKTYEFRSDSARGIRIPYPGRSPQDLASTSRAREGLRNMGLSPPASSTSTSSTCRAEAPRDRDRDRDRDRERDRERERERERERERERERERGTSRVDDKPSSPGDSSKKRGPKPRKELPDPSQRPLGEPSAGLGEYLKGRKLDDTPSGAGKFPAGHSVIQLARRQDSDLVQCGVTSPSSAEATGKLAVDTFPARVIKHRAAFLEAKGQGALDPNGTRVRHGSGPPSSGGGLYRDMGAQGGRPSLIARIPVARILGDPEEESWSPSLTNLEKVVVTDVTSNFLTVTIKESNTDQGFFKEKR
Assay: co-IP; lysate of T24 cells; precipitated with anti-CBX8 antibody (IgG as negative control), 4 °C overnight, protein A agarose; Western blot for BCOR

The chains behind the UniProt entries cited, without tags or fusion partners.
UniProt Q6W2J9: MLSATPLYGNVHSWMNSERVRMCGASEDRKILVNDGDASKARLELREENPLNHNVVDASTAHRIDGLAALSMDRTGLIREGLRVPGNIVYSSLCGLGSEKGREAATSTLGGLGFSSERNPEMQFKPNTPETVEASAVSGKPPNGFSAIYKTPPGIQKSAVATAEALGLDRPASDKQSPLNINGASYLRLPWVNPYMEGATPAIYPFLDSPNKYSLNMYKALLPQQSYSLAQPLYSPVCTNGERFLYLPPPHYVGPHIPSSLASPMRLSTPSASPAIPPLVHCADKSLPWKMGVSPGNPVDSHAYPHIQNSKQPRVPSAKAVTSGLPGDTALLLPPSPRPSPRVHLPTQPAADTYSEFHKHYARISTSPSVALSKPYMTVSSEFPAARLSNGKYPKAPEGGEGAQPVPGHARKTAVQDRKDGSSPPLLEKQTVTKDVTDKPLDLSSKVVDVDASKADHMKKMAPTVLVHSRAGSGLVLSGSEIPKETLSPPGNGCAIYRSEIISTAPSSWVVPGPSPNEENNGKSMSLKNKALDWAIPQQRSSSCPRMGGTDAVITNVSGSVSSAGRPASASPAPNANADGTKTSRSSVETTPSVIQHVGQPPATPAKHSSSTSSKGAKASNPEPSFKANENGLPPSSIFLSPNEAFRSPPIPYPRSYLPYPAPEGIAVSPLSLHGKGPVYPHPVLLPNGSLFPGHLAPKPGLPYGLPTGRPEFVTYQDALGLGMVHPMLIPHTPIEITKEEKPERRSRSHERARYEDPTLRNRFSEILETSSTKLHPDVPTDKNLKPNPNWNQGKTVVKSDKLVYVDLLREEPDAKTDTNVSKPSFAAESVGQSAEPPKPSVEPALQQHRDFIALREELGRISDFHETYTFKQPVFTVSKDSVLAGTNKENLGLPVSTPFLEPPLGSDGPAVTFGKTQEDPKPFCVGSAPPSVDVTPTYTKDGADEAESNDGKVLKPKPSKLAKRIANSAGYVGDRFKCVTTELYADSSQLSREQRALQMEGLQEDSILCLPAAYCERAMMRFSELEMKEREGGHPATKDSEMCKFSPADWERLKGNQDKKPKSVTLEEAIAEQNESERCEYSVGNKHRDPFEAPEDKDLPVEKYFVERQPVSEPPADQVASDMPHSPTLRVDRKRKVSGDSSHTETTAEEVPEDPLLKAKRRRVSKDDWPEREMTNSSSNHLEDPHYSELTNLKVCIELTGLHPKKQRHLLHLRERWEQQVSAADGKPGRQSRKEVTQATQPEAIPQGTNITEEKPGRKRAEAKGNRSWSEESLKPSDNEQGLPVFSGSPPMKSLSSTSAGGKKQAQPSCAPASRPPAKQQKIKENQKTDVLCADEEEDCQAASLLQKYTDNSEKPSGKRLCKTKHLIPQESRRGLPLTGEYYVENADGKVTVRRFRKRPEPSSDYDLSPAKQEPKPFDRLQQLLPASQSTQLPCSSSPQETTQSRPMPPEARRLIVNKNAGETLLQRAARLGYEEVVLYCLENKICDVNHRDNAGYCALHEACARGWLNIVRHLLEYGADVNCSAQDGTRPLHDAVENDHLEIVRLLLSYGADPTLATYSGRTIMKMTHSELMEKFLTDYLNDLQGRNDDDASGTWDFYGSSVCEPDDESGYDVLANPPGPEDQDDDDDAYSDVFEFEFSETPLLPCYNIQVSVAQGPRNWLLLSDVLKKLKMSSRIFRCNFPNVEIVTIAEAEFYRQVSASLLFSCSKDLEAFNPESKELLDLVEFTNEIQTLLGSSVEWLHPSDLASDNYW

For “BCL6 corepressor (from UniProt Q6W2J9 1-1755)”, the binding was “binds”.
